Results are given in words; binding and its absence hold for the method and conditions named. Binding seen in cells or lysates may run through a third protein. Here binding means that the protein was enriched with, or labelled near, the bait; the list need not be complete. Sequences can lack the tags named with a protein.
Target: T1, Streptavidin-FLAG-Spt6p^tSH2 (S. cerevisiae) (UniProt P23615)
T1 sequence: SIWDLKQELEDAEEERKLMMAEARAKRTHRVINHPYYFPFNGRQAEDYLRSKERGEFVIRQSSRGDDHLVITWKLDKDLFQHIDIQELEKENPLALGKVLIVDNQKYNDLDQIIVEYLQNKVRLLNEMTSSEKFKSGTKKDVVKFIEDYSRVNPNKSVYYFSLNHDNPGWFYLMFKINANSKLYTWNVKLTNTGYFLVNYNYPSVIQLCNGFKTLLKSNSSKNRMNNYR
Test: affinity purification with mass spectrometry

Protein sequences, listed by entry. Tags and fused reporters are not part of them.
UniProt Q03280: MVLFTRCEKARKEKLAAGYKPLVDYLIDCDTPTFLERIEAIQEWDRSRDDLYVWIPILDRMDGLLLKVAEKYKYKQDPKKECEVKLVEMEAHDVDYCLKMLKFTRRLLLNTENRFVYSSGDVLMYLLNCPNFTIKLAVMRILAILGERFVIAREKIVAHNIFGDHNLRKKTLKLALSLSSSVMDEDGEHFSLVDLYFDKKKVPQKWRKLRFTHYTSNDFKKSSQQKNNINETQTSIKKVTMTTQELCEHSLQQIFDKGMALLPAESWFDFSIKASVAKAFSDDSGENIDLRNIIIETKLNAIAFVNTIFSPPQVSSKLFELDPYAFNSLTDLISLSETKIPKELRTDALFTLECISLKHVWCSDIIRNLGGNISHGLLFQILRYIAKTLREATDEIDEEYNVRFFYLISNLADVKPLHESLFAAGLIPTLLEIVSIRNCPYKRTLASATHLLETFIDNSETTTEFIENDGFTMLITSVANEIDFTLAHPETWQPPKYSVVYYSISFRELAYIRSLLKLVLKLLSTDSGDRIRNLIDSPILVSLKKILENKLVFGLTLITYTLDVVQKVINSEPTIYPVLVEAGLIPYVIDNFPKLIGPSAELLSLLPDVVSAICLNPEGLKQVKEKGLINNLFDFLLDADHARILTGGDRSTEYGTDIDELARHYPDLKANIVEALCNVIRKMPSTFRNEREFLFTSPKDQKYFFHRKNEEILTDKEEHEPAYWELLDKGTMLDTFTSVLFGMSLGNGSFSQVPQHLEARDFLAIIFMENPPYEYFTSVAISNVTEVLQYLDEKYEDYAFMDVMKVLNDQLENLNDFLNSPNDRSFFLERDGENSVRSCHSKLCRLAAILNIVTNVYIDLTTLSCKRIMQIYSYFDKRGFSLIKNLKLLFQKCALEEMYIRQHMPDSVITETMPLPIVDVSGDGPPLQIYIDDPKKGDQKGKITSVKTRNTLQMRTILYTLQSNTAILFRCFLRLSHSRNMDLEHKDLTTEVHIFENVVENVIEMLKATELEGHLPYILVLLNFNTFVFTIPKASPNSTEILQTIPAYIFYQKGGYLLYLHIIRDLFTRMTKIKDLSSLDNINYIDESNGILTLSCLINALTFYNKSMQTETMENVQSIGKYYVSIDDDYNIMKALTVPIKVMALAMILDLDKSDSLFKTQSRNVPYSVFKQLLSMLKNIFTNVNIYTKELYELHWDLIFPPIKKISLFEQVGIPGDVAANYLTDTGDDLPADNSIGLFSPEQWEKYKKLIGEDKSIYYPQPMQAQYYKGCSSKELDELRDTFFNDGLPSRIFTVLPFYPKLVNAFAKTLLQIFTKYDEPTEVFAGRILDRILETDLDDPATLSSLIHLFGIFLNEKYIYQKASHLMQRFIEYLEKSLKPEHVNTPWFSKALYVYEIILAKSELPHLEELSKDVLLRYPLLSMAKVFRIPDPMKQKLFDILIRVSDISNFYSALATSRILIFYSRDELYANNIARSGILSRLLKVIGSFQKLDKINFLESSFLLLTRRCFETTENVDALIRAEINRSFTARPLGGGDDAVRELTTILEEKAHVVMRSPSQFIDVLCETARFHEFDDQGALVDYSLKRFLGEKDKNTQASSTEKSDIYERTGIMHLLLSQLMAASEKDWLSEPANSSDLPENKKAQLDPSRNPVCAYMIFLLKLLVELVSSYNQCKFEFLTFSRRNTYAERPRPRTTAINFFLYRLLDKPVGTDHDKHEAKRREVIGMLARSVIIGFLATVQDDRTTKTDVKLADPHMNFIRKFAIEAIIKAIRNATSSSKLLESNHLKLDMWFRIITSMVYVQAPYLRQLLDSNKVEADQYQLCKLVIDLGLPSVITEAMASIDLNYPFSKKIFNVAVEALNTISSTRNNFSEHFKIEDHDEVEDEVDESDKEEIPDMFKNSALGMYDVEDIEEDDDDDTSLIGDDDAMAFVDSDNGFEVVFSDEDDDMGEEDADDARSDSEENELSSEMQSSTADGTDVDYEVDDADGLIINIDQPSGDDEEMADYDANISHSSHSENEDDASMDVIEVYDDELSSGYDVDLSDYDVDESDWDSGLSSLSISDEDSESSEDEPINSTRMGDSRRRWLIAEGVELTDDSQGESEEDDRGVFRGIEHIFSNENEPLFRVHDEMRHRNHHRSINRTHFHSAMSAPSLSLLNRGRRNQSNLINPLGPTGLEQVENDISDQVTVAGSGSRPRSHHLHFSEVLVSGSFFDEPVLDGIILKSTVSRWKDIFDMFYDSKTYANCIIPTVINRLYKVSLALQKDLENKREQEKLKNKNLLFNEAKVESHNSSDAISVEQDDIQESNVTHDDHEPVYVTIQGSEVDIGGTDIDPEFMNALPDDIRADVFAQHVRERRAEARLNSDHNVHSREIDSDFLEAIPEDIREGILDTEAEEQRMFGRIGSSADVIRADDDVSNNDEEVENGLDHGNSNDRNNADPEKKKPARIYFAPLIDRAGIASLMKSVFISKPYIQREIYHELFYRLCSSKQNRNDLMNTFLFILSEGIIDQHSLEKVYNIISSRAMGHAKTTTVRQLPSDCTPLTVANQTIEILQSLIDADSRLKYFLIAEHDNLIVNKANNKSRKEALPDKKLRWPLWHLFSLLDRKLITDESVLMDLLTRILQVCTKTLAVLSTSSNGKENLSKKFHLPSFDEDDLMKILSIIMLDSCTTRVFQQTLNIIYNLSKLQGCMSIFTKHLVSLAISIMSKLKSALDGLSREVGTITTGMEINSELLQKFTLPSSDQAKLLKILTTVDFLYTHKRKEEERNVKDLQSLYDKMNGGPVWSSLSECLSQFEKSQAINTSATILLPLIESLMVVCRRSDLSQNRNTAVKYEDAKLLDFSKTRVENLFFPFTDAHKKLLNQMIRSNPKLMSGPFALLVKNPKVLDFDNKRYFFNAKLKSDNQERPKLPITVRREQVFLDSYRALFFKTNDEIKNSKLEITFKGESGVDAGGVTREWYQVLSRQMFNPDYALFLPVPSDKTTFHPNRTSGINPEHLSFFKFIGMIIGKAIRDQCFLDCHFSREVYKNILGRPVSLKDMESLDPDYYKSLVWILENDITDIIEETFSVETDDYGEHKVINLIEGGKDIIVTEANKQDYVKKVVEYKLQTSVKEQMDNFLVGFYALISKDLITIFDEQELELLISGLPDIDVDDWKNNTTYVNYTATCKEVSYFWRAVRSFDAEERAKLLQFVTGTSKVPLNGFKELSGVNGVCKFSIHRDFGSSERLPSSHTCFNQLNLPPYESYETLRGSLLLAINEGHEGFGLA

binding: binds
Substance: Tom1p (endogenous) (from UniProt Q03280 1-3268)
